PubChem BioAssay AID463205 (Broad Institute, 2010)
Screen size: about 2,400 compounds; about 20 (0.8%) were called active.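 The calls were made as follows: active = AC50 no more than ten times the highest tested concentration, or full inhibition at every dose giving a flat fit (cut at about 30 µM in these data); inconclusive = flat fit with activity between 30% and 70%, or poor-quality invalid fit; inactive = AC50 more than ten times the top tested dose.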 The list shows a part of the results.

Test: inhibitors of ADP-Glo detection reagents, dose response, artefact control for GSK-3a inhibitor project, biochemical, luminescence, cell-free, homogeneous (AID 463205);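 also: kinase-free counter-screen against the ADP-Glo detection reagents only; potency is for inhibitors that reduce the luminescence signal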
Details: 5 uM ADP
With `COCCNC(=O)c1ccc(Cn2c(=S)[nH]c3cc4c(cc3c2=O)OCO4)cc1` the AC50 was inactive: > 30 µM.
For `CCC(=N\NC(=O)COc1ccccc1OC)/C(CC)=N/NC(=O)COc1ccccc1OC`, the AC50 was inactive: > 30 µM.
With `Cc1ccc2nc(-c3ccccn3)[nH]c2c1` the AC50 was inactive: > 30 µM.
In the case of `C[C@@H]1O[C@@H](Oc2c(-c3ccc(O)c(O)c3)oc3cc(O)cc(O)c3c2=O)[C@H](O)[C@H](O)[C@H]1O`, the AC50 is reported as inactive: > 30 µM.
In the case of `CCCNC(=O)NC(C(=O)OC)C12CC3CC(CC(C3)C1)C2` (stereo not drawn), the AC50 is reported as inactive: > 30 µM.
For `CCc1cc2c3c(c(=O)oc2cc1O)CCCC3`, the AC50 was inactive: > 30 µM.
With `Nc1ccc2nc(C3CCCCC3)[nH]c2c1` the AC50 was inactive: > 30 µM.
In the case of `N#CC1=C2SCN(Cc3ccco3)CN2C(=O)CC1c1ccccc1F` (stereo not drawn), the AC50 is reported as inactive: > 30 µM.
With `Cc1nn(CCOc2ccccc2)c(=O)n1-c1ccccc1F` the AC50 was inactive: > 30 µM.
For `Cc1ccc2nc(-c3ccccc3N)[nH]c2c1`, the AC50 was inactive: > 30 µM.
For `Cc1ccc2c(c1)COc1c3ccc(C(=O)N4CCOCC4)cc3nn1-2`, the AC50 was inactive: > 30 µM.
In the case of `CC1=C(C(=O)Nc2cccc(F)c2)C(c2ccsc2)C2=C(CC(C)(C)CC2=O)N1` (stereo not drawn), the AC50 is reported as inactive: > 30 µM.
For `Cc1sc2ncnc(N3CCC(C(=O)Nc4ccc(C#N)cc4)CC3)c2c1C`, the AC50 was inactive: > 30 µM.
With `Cc1cnc(NC(=O)C2CC(=O)N(c3ccc4c(c3)OCCO4)C2)s1` (stereo not drawn) the AC50 was inactive: > 30 µM.
For `Cc1ccc(-c2nnc3n2N=C(c2ccccc2)CS3)cc1`, the AC50 was inactive: > 30 µM.
In the case of `Cc1nc2ncnn2c(C)c1Cc1ccccc1Cl`, the AC50 is reported as inactive: > 30 µM.
In the case of `COc1ccc(OCC(=O)N2CCN(c3nnc(-c4ccc(C)cc4)c4ccccc34)CC2)cc1`, the AC50 is reported as inactive: > 30 µM.
For `COCc1c(C(=O)N/N=C\c2cccnc2)nnn1-c1nonc1N`, the AC50 was inactive: > 30 µM.
For `CCOc1cccc(-c2c(C(=O)N/N=C/c3ccncc3)nnn2-c2nonc2N)c1`, the AC50 was inactive: > 30 µM.
In the case of `CN(C)S(=O)(=O)c1cccc(NC(=S)NN=C(Cc2ccccc2)Cc2ccccc2)c1`, the AC50 is reported as inactive: > 30 µM.
For `O=C(O)c1cccc2c1C(=O)c1cc(Br)ccc1S2(=O)=O`, the AC50 was inactive: > 30 µM.
With `COc1ccccc1NC(=O)c1ccc(C(=O)c2ccccc2)o1` the AC50 was inactive: > 30 µM.
With `N#Cc1c(Nc2ccccc2)c(C=O)c[nH]c1=O` the AC50 was inactive: > 30 µM.
For `COc1ccc(NC(=O)CSc2nc3[nH]ncc3c(=O)n2-c2ccccc2OC)cc1OC`, the AC50 was inactive: > 30 µM.
For `CCN1C(=O)c2ccc(C(=O)NCc3ccc4c(c3)OCO4)cc2C1=O`, the AC50 was inactive: > 30 µM.
With `O=C(CSc1nnc(SCc2ccccc2)s1)N/N=C/c1ccc(C(=O)O)cc1` the AC50 was inactive: > 30 µM.
For `CCOc1ccc(C2C3=C(CCCC3=O)Nc3ccc4ncccc4c32)cc1` (stereo not drawn), the AC50 was inactive: > 30 µM.
For `CCOc1ccc(Cn2nnc(C(=O)Nc3ccc(OC)cc3OC)c2N)cc1`, the AC50 was inactive: > 30 µM.
With `CCOC(=O)c1[nH]cnc1C(=O)Nc1ccncc1` the AC50 was inactive: > 30 µM.
With `CC1(C)CC(NC(=O)COc2ccccc2Cl)CC(C)(C)N1` the AC50 was inactive: > 30 µM.
In the case of `Cn1c(=O)c2c(-c3ccccc3)n3c4ccccc4ncc3c2n(C)c1=O`, the AC50 is reported as inactive: > 30 µM.
In the case of `CC1(c2ccccc2)CC(C)(C)N2C(=O)/C(=C3\SC(=S)NC3=O)c3cccc1c32` (stereo not drawn), the AC50 is reported as inactive: > 30 µM.
For `NC(=O)c1cc([N+](=O)[O-])ccc1NCc1ccc(N)cc1`, the AC50 was inactive: > 30 µM.
For `CN(Cc1c(C(=O)N/N=C/c2cccc(O)c2)nnn1-c1nonc1N)c1ccccc1`, the AC50 was inactive: > 30 µM.
With `Cc1cc(OC(=O)c2c(C)cc(O)cc2O)cc(O)c1C(=O)O` the AC50 was inactive: > 30 µM.
For `C/C(=N\NC(=O)c1nnn(-c2nonc2N)c1-c1cccs1)c1cccnc1`, the AC50 was inactive: > 30 µM.
In the case of `Cc1cnn(C(=O)c2ccccc2Br)c1`, the AC50 is reported as inactive: > 30 µM.
For `O=C1/C(=C/c2ccco2)Oc2c1ccc(O)c2CN1CCCCC1`, the AC50 was inactive: > 30 µM.
For `Cc1ccc(C(=O)c2cnc3cc4c(cc3c2S(=O)(=O)c2ccccc2)OCCO4)cc1`, the AC50 was inactive: > 30 µM.
For `CC(C)CSc1ncnc2c1oc1nc3c(cc12)COC(C)(C)C3`, the AC50 was inactive: > 30 µM.
For `CC(C)(C)CNc1cc(N2CCCC2)ccc1[N+](=O)[O-]`, the AC50 was inactive: > 30 µM.
With `O=C(Nc1ccccc1C(=O)NC1CCCCC1)c1ccccc1` the AC50 was inactive: > 30 µM.
With `O=C(CSc1ncnc2sc3c(c12)CCC3)NCC1CCCO1` (stereo not drawn) the AC50 was inactive: > 30 µM.
With `O=C(NCCN1CCc2ccccc2C1)Nc1ccc(F)cc1` the AC50 was inactive: > 30 µM.
With `C[n+]1cccc(C2C(C#N)=C(N)Oc3c2ccc2ccccc32)c1` (stereo not drawn) the AC50 was inactive: > 30 µM.
For `N#Cc1c(NC(=O)CSc2n[nH]c(N)n2)oc(-c2ccccc2)c1-c1ccccc1`, the AC50 was inactive: > 30 µM.
With `COC1(OC)N=C(N)C2(C#N)C(c3ccc(C)cc3)C12C#N` (stereo not drawn) the AC50 was inactive: > 30 µM.
In the case of `COc1ccc(OC)c(C2=Nn3c(nnc3-c3ccncc3)SC2)c1`, the AC50 is reported as inactive: > 30 µM.
For `O=c1[nH]nc(SCc2ccccc2Cl)n1-c1ccc2c(c1)OCCO2`, the AC50 was inactive: > 30 µM.
With `O=C(CSc1nc2[nH]ncc2c(=O)n1-c1ccccc1)NCCc1ccccc1` the AC50 was inactive: > 30 µM.
In the case of `NC(=O)c1cc([N+](=O)[O-])ccc1NCc1ccc(O)cc1`, the AC50 is reported as inactive: > 30 µM.
For `Oc1cccc(Nc2nc(NCC3CCCO3)c3ccccc3n2)c1` (stereo not drawn), the AC50 was inactive: > 30 µM.
In the case of `Cc1ccc(S(=O)(=O)Nc2ccc(O)c3cccnc23)cc1`, the AC50 is reported as inactive: > 30 µM.
For `C#CCOCCOCCOCCNc1nc(N2CCN(C(=O)[C@H](CCC(=O)O)n3cc([C@@H](N)CCCCN)nn3)CC2)nc(N2CCN(C(=O)[C@H](CCC(=O)O)n3cc([C@@H](N)CCCCN)nn3)CC2)n1`, the AC50 was inactive: > 30 µM.
With `NC(=O)c1oc2ccccc2c1NC(=O)c1ccc(F)cc1` the AC50 was inactive: > 30 µM.
For `CCCC1=C(C(=O)OCC)C(c2ccc(N(C)C)cc2)n2ncnc2N1` (stereo not drawn), the AC50 was inactive: > 30 µM.
For `O=C(CCn1[nH]c(=O)c2ccccc2c1=O)N1CCOCC1`, the AC50 was inactive: > 30 µM.
In the case of `CCC(=O)/C=C1\Sc2ccc(OC)cc2N1CCO`, the AC50 is reported as inactive: > 30 µM.
With `Cc1ccc(N=C2NC(=O)/C(=C\c3ccc(C)s3)S2)cc1` the AC50 was inactive: > 30 µM.
For `O=C(Nc1ccsc1C(=O)O)c1ccc(Cl)cc1`, the AC50 was inactive: > 30 µM.
For `CCOc1ccccc1C1CC(=O)NC2=C1C(=O)CC(C)(C)C2` (stereo not drawn), the AC50 was inactive: > 30 µM.
For `CCOC(=O)c1cnc2c(C(F)(F)F)cccc2c1N1CCN(C)CC1`, the AC50 was inactive: > 30 µM.
For `O=S(=O)(O)c1ccc(N=Nc2ccccc2)cc1`, the AC50 was inactive: > 30 µM.
In the case of `O=S(=O)(c1ccc(Cl)nc1)N1CCN(Cc2ccc3c(c2)OCO3)CC1`, the AC50 is reported as inactive: > 30 µM.
For `COc1ccccc1NC(=O)CCSc1nnc(-c2ccncc2)o1`, the AC50 was inactive: > 30 µM.
For `O=[N+]([O-])c1cnccc1NC1CCCCC1`, the AC50 was inactive: > 30 µM.
For `O=C1c2cnc3ncnn3c2CC2c3ccccc3CCN12` (stereo not drawn), the AC50 was inactive: > 30 µM.
In the case of `COc1cc(OC)cc(-c2nnc(SCc3c(F)cccc3Cl)o2)c1`, the AC50 is reported as inactive: > 30 µM.
For `Nc1nonc1-n1nnc(C(=O)N/N=C\c2cccc(Cl)c2)c1CN1CCOCC1`, the AC50 was inactive: > 30 µM.
In the case of `COc1ccc(CC(=O)NCCc2cnc[nH]2)cc1`, the AC50 is reported as inactive: > 30 µM.
With `O=C(CSc1nnc(-c2ccc(O)cc2)o1)Nc1ccccc1` the AC50 was inactive: > 30 µM.
For `N#CCSc1nnc(-c2ccc3c(c2)OCO3)o1`, the AC50 was inactive: > 30 µM.
With `O=C(COc1ccccc1F)NC12CC3CC(CC(C3)C1)C2` the AC50 was inactive: > 30 µM.
For `Nc1c(O)ccc2c1C(=O)c1ccccc1C2=O`, the AC50 was inactive: > 30 µM.
For `O=C(O)CCNc1ccc(NCCC(=O)O)c2c1C(=O)c1ccccc1C2=O`, the AC50 was inactive: > 30 µM.
With `Clc1cccc(Nc2ncnc3ccc(Br)cc23)c1` the AC50 was inactive: > 30 µM.
For `Fc1ccccc1N1CCN(CCCNc2ccc3nncn3n2)CC1`, the AC50 was inactive: > 30 µM.
With `CCOC(=O)c1cc(-c2ccccc2)n(CCC(=O)NC(C)CC)c1C` (stereo not drawn) the AC50 was inactive: > 30 µM.
In the case of `COC(=O)c1c(NC(=O)CN2C(=O)NC3(CCc4ccccc4C3)C2=O)sc2c1CCCCC2` (stereo not drawn), the AC50 is reported as inactive: > 30 µM.
With `O=C(NCCCN1CCOCC1)c1ccc(Cl)cc1[N+](=O)[O-]` the AC50 was inactive: > 30 µM.
For `COc1ccc(OCC(=O)Nc2ccc3c(c2)C(=O)NC3=O)cc1`, the AC50 was inactive: > 30 µM.
With `CCCC1=C(C(=O)OCC)C(c2ccncc2)n2ncnc2N1` (stereo not drawn) the AC50 was inactive: > 30 µM.
For `CSc1nc2n(n1)C(c1ccccn1)C1=C(CC(C)(C)CC1=O)N2` (stereo not drawn), the AC50 was inactive: > 30 µM.
With `CCOC(=O)N1CC=C2C(C#N)=C(N)C(C#N)(C#N)[C@H](c3cccs3)[C@H]2C1` the AC50 was inactive: > 30 µM.
For `Nc1nc(-c2ccccc2)nc(-c2ccccc2O)n1`, the AC50 was inactive: > 30 µM.
In the case of `CSCCC1NC(=S)N(Cc2ccccc2)C1=O` (stereo not drawn), the AC50 is reported as inactive: > 30 µM.
With `c1ccc2[nH]c(Cn3nnc4ccccc43)nc2c1` the AC50 was inactive: > 30 µM.
In the case of `COc1ccc(/C=C/c2nc3ccccc3n2C)cc1`, the AC50 is reported as active: 14.3 µM.
In the case of `O=C(COC(=O)c1cccs1)Nc1ccc(Cl)cn1`, the AC50 is reported as inactive: > 30 µM.
With `COc1ccccc1N/C=C/c1onc(C)c1[N+](=O)[O-]` the AC50 was inactive: > 30 µM.
In the case of `O=C(CSc1nnc(-c2ccc(O)cc2)o1)Nc1ccc2c(c1)OCCO2`, the AC50 is reported as inactive: > 30 µM.
In the case of `c1cncc(CSc2nnc3ccc(-c4cccs4)nn23)c1`, the AC50 is reported as inactive: > 30 µM.
With `O=C1NC(=S)N/C1=C\c1ccc(N2CCOCC2)cc1` the AC50 was inactive: > 30 µM.
